Data taken from PubChem BioAssay AID504834 (National Center for Advancing Translational Sciences (NCATS), 2011).
Hit rate of the full screen: of about 320,000 compounds, about 22,000 (6.9%) were called active. The shares of active, inactive and inconclusive entries below differ from those in the screen. Calls follow the shape of the dose curve; as a rule, active = well fitted inhibition curve with a large enough effect; inconclusive = small, poorly fitted or top-dose-only effect, or another doubt; inactive = no such curve, though single readings can be large or run the other way. A potency beside an inconclusive call is a rough fit, not a confirmed value.
% is scaled to controls: 0 for no effect and ±100 for the full control effect; potency is read from the fitted curve at half-maximal effect.

Test: Primary qHTS for delayed death inhibitors of the malarial parasite plastid, 96 hour incubation
Settings: P. falciparum luciferase reporter growth; series mostly up to 28.7 µM; activity change, negative = inhibition: at the top concentration
Procedure, shortened: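 Delayed-death screen, second-generation endpoint: infected erythrocytes, 2% hematocrit, 0.05% parasitemia final; 96 hours at 37 C, 5% CO2; luciferase detection reagent; luminescence decrease equals reduced growth.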
With `Cc1cc(C(=O)N(NC(=O)C(C)C)c2ccccc2)cs1` the Potency was active: 8.28 µM. In the case of `COc1ccc(C)cc1NC(=O)C1COc2ccccc2O1` (stereo not drawn), the Potency is reported as inconclusive: 8.28 µM [inhibitor, partial curve, poor fit]. With `CC1CCCCC1NC(=O)C1CCN(S(=O)(=O)c2ccc(-n3cnnn3)cc2)CC1` (stereo not drawn) the Potency was inconclusive: 0.0465 µM [inhibitor, full curve, poor fit]. For `CCOC(=O)c1c(C)[nH]c(C)c1C(=O)COC(=O)c1cccc(S(=O)(=O)N(CC)CC)c1`, the Potency was active: 9.28 µM. In the case of `COC(=O)C1=C(c2ccc(OC(F)(F)F)cc2)C[C@@H]2CC[C@H]1N2C(=O)NCCNC(C)=O`, the “activity change, negative = inhibition” value is reported as inactive: 27.5%. With `COc1ccc(CCNC(=O)c2cc3c(=O)n4ccccc4nc3n(CC3CCCO3)c2=N)cc1OC` (stereo not drawn) the Potency was inconclusive: 4.15 µM [inhibitor, partial curve, poor fit]. For `CCOc1ccccc1CN1CCCC(C(=O)c2ccc(OC)c(OC)c2)C1` (stereo not drawn), the Potency was inconclusive: 5.86 µM [inhibitor, partial curve, poor fit]. For `COc1ccc(NC(=O)Cn2c(=O)oc3cc(Cl)ccc32)c(OC)c1`, the Potency was inconclusive: 18.5 µM [inhibitor, single point]. In the case of `CC(O)C(O)[C@H]1CNc2nc(N)[nH]c(=O)c2N1` (stereo partly drawn), the Potency is reported as inconclusive: 19 µM [inhibitor, single point]. In the case of `CCOc1cc(C2Nc3ccccc3C(=O)N2c2ccccc2OC)ccc1O` (stereo not drawn), the Potency is reported as inconclusive: 0.208 µM [inhibitor, full curve, poor fit]. For `C=C(C)C1CC=C(C)/C(=N/NC(=O)c2cccs2)C1` (stereo not drawn), the “activity change, negative = inhibition” value was inactive: 85.2%. With `O=C1CCc2cc(S(=O)(=O)NCCC(=O)NC3CCCCC3)ccc2N1` the “activity change, negative = inhibition” value was inactive: 59.8%. In the case of `O=C(COc1ccc(Cl)cc1Br)NC(=O)NCc1ccccc1`, the Potency is reported as inconclusive: 18.5 µM [inhibitor, single point]. With `CCOC(=O)c1ccc(N2C(=O)c3n[nH]c(C)c3C2c2ccccc2)cc1` (stereo not drawn) the Potency was inconclusive: 5.22 µM [inhibitor, partial curve, poor fit]. For `Cc1cc(NC(=O)CCC(=O)N(CCC(C)C)C(C(=O)NC2CCCC2)c2cccnc2)no1` (stereo not drawn), the Potency was inconclusive: 11.7 µM [inhibitor, single point]. In the case of `O=C(CN1C(=O)S/C(=C\c2ccccc2Cl)C1=O)NC1C=CS(=O)(=O)C1` (stereo not drawn), the “activity change, negative = inhibition” value is reported as inactive: 3.43%. In the case of `Cc1ccc2c(c1)C(N1CCCC1=O)CC(c1ccco1)N2` (stereo not drawn), the Potency is reported as inconclusive: 10.4 µM [inhibitor, single point]. In the case of `Cc1sc(N)nc1-c1ccccc1`, the Potency is reported as inconclusive: 0.586 µM [inhibitor, partial curve, poor fit]. For `CCOC(=O)[C@@H]1[C@H]2COc3cc(OC)ccc3[C@@H]2N2C(=O)N(c3cccc(F)c3)C(=O)[C@]12C`, the Potency was inconclusive: 6.57 µM [inhibitor, partial curve]. For `COCCSc1ccccc1C(=O)Nc1cc(C)on1`, the Potency was inconclusive: 8.28 µM [inhibitor, single point]. In the case of `Nc1ccc(N2CCOCC2)c2nonc12`, the Potency is reported as active: 11.7 µM. In the case of `N#Cc1ncn(-c2ccc(Oc3ccccc3)cc2)c1N`, the “activity change, negative = inhibition” value is reported as inactive: 27.1%. With `CCOC(=O)C1(Cc2ccccc2)CCN(Cc2cccc(OC)c2O)CC1` the Potency was active: 10.4 µM. In the case of `Cc1cc([N+](=O)[O-])ccc1-c1ccc(C2Nc3ccccc3C(=O)N2O)o1` (stereo not drawn), the Potency is reported as inconclusive: 13.1 µM [inhibitor, single point]. In the case of `Cc1c(CCC(=O)O)c(=O)oc2c(C)c(OCc3ccccc3Cl)ccc12`, the “activity change, negative = inhibition” value is reported as inactive: 56.3%. For `COc1ccc(CCNC(=O)c2cc(-c3cc(C)cc(C)c3O)n[nH]2)cc1OC`, the Potency was inconclusive: 10.4 µM [inhibitor, partial curve, poor fit]. In the case of `CCCCCOc1ccc(C(=O)Nc2ccc(N3CCOCC3)cc2N2CCOCC2)cc1`, the Potency is reported as inconclusive: 5.86 µM [inhibitor, partial curve, poor fit]. With `CCn1c(NCc2ccccc2Cl)nc2ccccc21` the “activity change, negative = inhibition” value was inactive: 3.92%. With `CCN(CC)CCN(Cc1cc2cc3c(cc2[nH]c1=O)OCCO3)C(=S)NCC(C)C` the Potency was inconclusive: 0.294 µM [inhibitor, full curve, poor fit]. With `COCCn1c(SCC(=O)c2ccc3c(c2)OCCO3)nnc1-c1ccco1` the “activity change, negative = inhibition” value was inactive: -13.9%. With `COc1ccc(C2CC(c3ccccc3)=NN2C(=O)c2cccs2)cc1` (stereo not drawn) the Potency was inconclusive: 2.94 µM [inhibitor, full curve]. With `Cc1ccc(S(=O)(=O)N2CCC(C(=O)Nc3ccccc3N3CCCCC3)CC2)cc1C` the Potency was inconclusive: 0.465 µM [inhibitor, full curve, poor fit]. With `Cc1ccc(CSCC(=O)NCCc2ccccc2)cc1` the “activity change, negative = inhibition” value was inactive: -16.5%. In the case of `O=S(=O)(c1ccc(S(=O)(=O)N2CCCC3(CCCCC3)C2)cc1)N1CCCCC1`, the Potency is reported as inconclusive: 18.5 µM [inhibitor, single point]. With `CC(C)(C)C(=O)CN1C(=O)NC2(CCOc3ccccc32)C1=O` (stereo not drawn) the Potency was inconclusive: 18.5 µM [inhibitor, single point]. For `CC(C)C[C@@H](C(=O)NC1CCN(Cc2ccccc2)CC1)N1C(=O)N2CCc3c([nH]c4ccccc34)[C@@]2(C)C1=O`, the Potency was inconclusive: 2.62 µM [inhibitor, full curve, poor fit]. For `CCN1C[C@]2(COC)CC[C@H](OC)[C@@]34C1[C@]1(OCO[C@@]15C[C@H](OC)[C@H]1C[C@@H]3[C@@H]5[C@H]1OC)[C@@H](O)[C@H]24`, the “activity change, negative = inhibition” value was inactive: 26.1%. With `Cc1ccc(C(=O)Nc2ccc(N3CCN(C)CC3)cc2)cc1` the “activity change, negative = inhibition” value was inactive: -0.105%. For `COc1ccc(CCNc2ccc(C(CC(N)=O)NC(=O)c3cc(C)cc(C)c3)cc2[N+](=O)[O-])cc1` (stereo not drawn), the “activity change, negative = inhibition” value was inactive: -15.4%. In the case of `N#Cc1ccc(C(c2nnnn2CCc2ccccc2)N2CCCCCC2)cc1` (stereo not drawn), the Potency is reported as inconclusive: 10.4 µM [inhibitor, single point]. In the case of `C#CCn1c(CCNC(=O)c2ccco2)nc2ccccc21`, the Potency is reported as inconclusive: 1.65 µM [inhibitor, full curve, poor fit]. With `O=C(CN1CCCCCCC1)N/N=C/c1ccccc1F` the Potency was inconclusive: 18.5 µM [inhibitor, single point]. With `COc1ccccc1C1=NN(C2=NN=C(N)Cc3ncnn32)C(O)(C(F)(F)F)C1` (stereo not drawn) the Potency was inconclusive: 0.208 µM [inhibitor, full curve, poor fit]. In the case of `O=C(c1cccc(-n2cccc2)c1)N1CCN(S(=O)(=O)c2ccccc2Br)CC1`, the Potency is reported as inconclusive: 7.38 µM [inhibitor, partial curve, poor fit]. For `CC/C(=N/NC(=O)c1ccc(Br)cc1)c1ccc(OCCN2CCOCC2)cc1`, the Potency was inconclusive: 0.0037 µM [inhibitor, full curve, poor fit]. With `CCc1ccc(N(C(=O)c2snc(C(N)=O)c2N)C(C(=O)NCC2CCCO2)c2ccco2)cc1` (stereo not drawn) the “activity change, negative = inhibition” value was inactive: 11.2%. For `COc1cccc(C2CC(C(F)(F)F)n3nc(C(=O)NCc4cccnc4)cc3N2)c1` (stereo not drawn), the “activity change, negative = inhibition” value was inactive: 18%. For `COc1ccc(Nc2nc3ccccc3n2C)cc1`, the “activity change, negative = inhibition” value was inactive: -17.7%. With `CNS(=O)(=O)c1cccc(C(=O)OCCCC(=O)c2ccccc2)c1` the “activity change, negative = inhibition” value was inactive: -12.1%. For `CC(=O)Nc1c(C(=O)N2CCOCC2)sc2nc3c(cc12)COC(C)(C)C3`, the Potency was inconclusive: 18.5 µM [inhibitor, single point]. In the case of `CN(C(=O)Nc1ccccc1)C1CCCc2ccccc21` (stereo not drawn), the Potency is reported as inconclusive: 16.5 µM [inhibitor, partial curve, poor fit]. In the case of `O=C(CSc1nncc(=O)[nH]1)Nc1cccc([N+](=O)[O-])c1`, the Potency is reported as inconclusive: 18.5 µM [inhibitor, single point]. For `Clc1ccc(-c2csc(-c3ccno3)n2)cc1`, the “activity change, negative = inhibition” value was inactive: 34.5%. In the case of `O=C(CCc1nnc(COc2ccccc2)o1)NCCc1cccs1`, the Potency is reported as active: 10.4 µM. For `Cc1ccc2c(CC(=O)NCC(C)(C)N3CCOCC3)coc2c1`, the Potency was inconclusive: 18.5 µM [inhibitor, single point]. For `COc1ccc(NC(=S)N(CCN(C)C)Cc2cccs2)cc1`, the Potency was inconclusive: 10.4 µM [inhibitor, single point]. With `O=C(COc1ccccc1Cl)N1CCN(c2ccc([N+](=O)[O-])c(N3CCCCC3)c2)CC1` the Potency was inconclusive: 14.7 µM [inhibitor, single point]. With `Cc1cccc(C)c1NC(=O)NCCCN1CCN(c2ccccc2)CC1` the Potency was inconclusive: 7.38 µM [inhibitor, partial curve, poor fit]. With `Cc1nn(CC(=O)NCc2ccc(-n3cccn3)cc2)c(C)c1[N+](=O)[O-]` the “activity change, negative = inhibition” value was inactive: -27.2%. In the case of `O=c1[nH]c(CN2CCN(c3ccccn3)CC2)nc2c(Br)cc(Br)cc12`, the “activity change, negative = inhibition” value is reported as inactive: 6.63%. In the case of `Cc1ccccc1CCN(C(=O)CN1C(=O)c2ccccc2S1(=O)=O)C(C(=O)NCC1CCCO1)c1ccncc1` (stereo not drawn), the Potency is reported as inconclusive: 0.828 µM [inhibitor, partial curve, poor fit]. For `CCOC(=O)COc1cc([N+](=O)[O-])cc2cccnc12`, the Potency was inconclusive: 18.5 µM [inhibitor, single point]. In the case of `CCN1CCN(C(=O)c2oc(=O)c3ccccc3c2-c2ccc(C)cc2)CC1`, the Potency is reported as active: 4.65 µM. In the case of `CCN1CCN(C(=O)c2ccc(Cl)c(S(=O)(=O)N3CCCCC3)c2)CC1`, the Potency is reported as inconclusive: 10.4 µM [inhibitor, single point]. With `CCOC(=O)C1(CCc2ccccc2)CCN(C(=O)CCc2cnccn2)CC1` the “activity change, negative = inhibition” value was inactive: 10.8%. With `CC(C)CC(=O)Nc1cccc(-c2nc3ccccc3o2)c1` the Potency was inconclusive: 18.5 µM [inhibitor, single point]. In the case of `O=S(=O)(N1CCCCC1)N1CCN(c2cc(Cl)ccc2Cl)CC1`, the Potency is reported as inconclusive: 0.0165 µM [inhibitor, full curve, poor fit]. With `C=CCOc1c(CNc2ccc(C(=O)O)cc2)cccc1OCC` the “activity change, negative = inhibition” value was inactive: 41.8%.
